These are yes or no findings as the source states them, for the method shown. Some binding calls cover weakened binding; strength is not graded here. Each block holds one binder with its values, some of them ahead of it.
What was measured:
[1] = molecular target: T1, α3β1 (VLA-3) integrin of cells (HeLa cells; K562A3 transfectants) (human) (UniProt P26006+P05556); test: FACS on K562A3 cells, VHH at 300 µg/ml, FITC anti-HIS6
[2] = molecular target: T1, α3β1 (VLA-3) integrin of cells (HeLa cells; K562A3 transfectants) (human); test: FACS on K562 and K562 cells expressing VLA-3
[3] = molecular target: recombinant VLA-3 (α3β1 integrin) (UniProt P26006); test: ELISA, integrin coated at 0.5 µg/well, absorbance at 450 nm
[4] = molecular target: T1, α3β1 (VLA-3) integrin of cells (HeLa cells; K562A3 transfectants) (human); test: immunoprecipitation from HeLa cell lysates, Western blot with anti-α3 and anti-β1 antibodies
[5] = molecular target: recombinant VLA-3 (α3β1 integrin) (UniProt P26006); test: ELISA on coated recombinant VLA-3
Human alpha3 (human) = molecular target: T2, Human alpha3 (human) (UniProt P26006); test: specificity ELISA on coated integrins, periplasmic extract
T2 sequence (looked up): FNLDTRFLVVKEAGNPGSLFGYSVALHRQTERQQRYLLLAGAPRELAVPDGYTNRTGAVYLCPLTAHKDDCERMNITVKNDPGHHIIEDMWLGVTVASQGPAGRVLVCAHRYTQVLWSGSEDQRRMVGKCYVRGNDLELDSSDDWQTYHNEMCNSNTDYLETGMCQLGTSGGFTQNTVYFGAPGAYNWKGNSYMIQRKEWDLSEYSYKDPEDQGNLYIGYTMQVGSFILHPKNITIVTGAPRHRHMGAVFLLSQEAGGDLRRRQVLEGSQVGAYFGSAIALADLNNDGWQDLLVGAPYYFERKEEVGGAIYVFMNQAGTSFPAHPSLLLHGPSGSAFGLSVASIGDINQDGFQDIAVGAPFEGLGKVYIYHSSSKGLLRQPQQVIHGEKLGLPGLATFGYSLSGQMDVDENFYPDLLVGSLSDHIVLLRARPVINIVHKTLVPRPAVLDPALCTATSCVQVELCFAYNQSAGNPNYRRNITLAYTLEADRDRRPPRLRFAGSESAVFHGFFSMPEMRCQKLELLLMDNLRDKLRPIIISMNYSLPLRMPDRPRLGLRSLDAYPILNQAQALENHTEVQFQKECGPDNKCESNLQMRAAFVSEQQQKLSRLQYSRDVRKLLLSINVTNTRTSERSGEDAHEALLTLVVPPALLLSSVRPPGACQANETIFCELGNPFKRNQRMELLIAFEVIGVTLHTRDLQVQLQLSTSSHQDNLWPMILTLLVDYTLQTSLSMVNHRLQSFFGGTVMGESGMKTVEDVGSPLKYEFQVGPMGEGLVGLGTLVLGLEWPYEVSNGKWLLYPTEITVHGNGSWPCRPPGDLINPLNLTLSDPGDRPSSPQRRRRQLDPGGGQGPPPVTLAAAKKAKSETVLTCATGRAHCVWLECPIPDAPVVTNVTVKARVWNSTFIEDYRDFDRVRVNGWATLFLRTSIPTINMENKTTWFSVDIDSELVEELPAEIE

Protein sequences, listed by entry. Tags and fused reporters are not part of them. Lines headed by an entry give the natural chain unless they say otherwise; changes in a name come on top.
UniProt P05556: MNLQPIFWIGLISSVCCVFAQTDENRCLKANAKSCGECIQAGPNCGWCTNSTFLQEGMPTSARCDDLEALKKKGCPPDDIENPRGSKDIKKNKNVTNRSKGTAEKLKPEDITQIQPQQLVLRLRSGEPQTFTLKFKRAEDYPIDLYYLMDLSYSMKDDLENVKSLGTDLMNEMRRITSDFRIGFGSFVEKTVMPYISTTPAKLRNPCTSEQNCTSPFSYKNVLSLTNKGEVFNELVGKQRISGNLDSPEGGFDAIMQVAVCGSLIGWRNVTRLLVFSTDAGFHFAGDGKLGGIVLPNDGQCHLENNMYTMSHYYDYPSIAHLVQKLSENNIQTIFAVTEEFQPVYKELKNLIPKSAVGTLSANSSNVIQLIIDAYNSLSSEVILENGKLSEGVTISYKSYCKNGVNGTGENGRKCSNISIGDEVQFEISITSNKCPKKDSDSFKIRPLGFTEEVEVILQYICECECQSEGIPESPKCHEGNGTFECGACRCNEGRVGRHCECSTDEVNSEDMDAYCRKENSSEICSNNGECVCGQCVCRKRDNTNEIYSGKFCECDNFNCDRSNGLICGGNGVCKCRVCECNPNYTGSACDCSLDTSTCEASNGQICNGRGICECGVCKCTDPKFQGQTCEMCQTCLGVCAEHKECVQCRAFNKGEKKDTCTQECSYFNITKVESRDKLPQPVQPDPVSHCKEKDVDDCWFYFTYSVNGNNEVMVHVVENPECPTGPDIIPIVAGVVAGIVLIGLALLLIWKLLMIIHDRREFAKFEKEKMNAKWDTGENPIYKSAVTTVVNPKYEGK

[6] = molecular target: T1, α3β1 (VLA-3) integrin of cells (HeLa cells; K562A3 transfectants) (human); test: immunofluorescence on fixed cryo-sections of K562 / K562-A3 cells, 10 ug/ml

binding [1]: binds
binding [2]: binds
binding [3]: binds
binding [4]: binds
binding [5]: binds
B1: VHH-H6 (VHH)
VHH: QVQLQDSGGGLVQAGGSLRLSCEASGRTFSSYAMGWFRQPPGKEREWVSTISRSGSAIYAYPVKGRFTMSRDNAKNTVYLEMNSLKPEDTAVFYCAAARSGVPSSRPTDYDYWGQGTQVTVSS
notes: Used with a Myc tag (captured/detected with anti-Myc 9E10) and a C-terminal His6 tag (detected with anti-HIS6 (C-term)); also called H6-VHH

binding (Human alpha3 (human)): binds
binding [6]: binds
B2: 245-A1 (VHH)
VHH: EVQLVESGGGLVQAGGSLRLSCAASGGTFRYQNMGWYRQAPGNEREWVASNWATGATAYADSVKGRFTISRDDAKNVVYLQMNNLKPEDTAVYYCNRLSRPWSWGQGTQVTVSS
